Values quoted from earlier work, collected in patent publication US20250064799A1, “ORAL FORMULATIONS OF LEVOSIMENDAN FOR TREATING PULMONARY HYPERTENSION WITH HEART FAILURE WITH PRESERVED EJECTION FRACTION” (Tenax Therapeutics, Inc., priority 2021, published 2025).
Some results were stated once for a whole list of compounds, not compound by compound.

System: phosphodiesterase-3 (PDE3)
Conditions: classical PDE inhibitors; cited from earlier work

Which “PDE3 vs. PDE4 selectivity” value does the source give for `Cc1[nH]c(=O)c(C#N)cc1-c1ccncc1` [milrinone] here?
The value was at least 17 fold.
